Measurements as given in patent publication US20040224935A1, “Topical antiandrogenic steroids” (Endorecherche, Inc., priority 2003, published 2004).
Several values for one entry are separate records, joined by “and”; a condition that tells them apart may be missing. Equal values may be shown once. At least one read-out could not be matched to a standard name with certainty.

Tests used:
[1] = tested on: Shionogi mouse mammary carcinoma cells; test: In vitro androgenic/antiandrogenic activity, DHT-stimulated Shionogi cell number; format: cell-based; conditions: OH-Flu = 1, higher values preferable
[2] = tested on: Hamster's ear sebaceous glands; test: Topical antiandrogenic activity, histomorphometry of the ear sebaceous glands in the hamster; format: in vivo, Male Golden Syrian hamster; conditions: once daily, 14 days, sebaceous gland area
Excerpt: Column 3 represents the dose of antiandrogenic compounds applied on the left ear of the intact male hamster.
Column 4 represents the relative inhibition in % of the area of the sebaceous gland of the left ear versus control hamster. Higher values approaching the effect of castration are preferable
The Antiandrogenic activity of antiandrogenic compounds has been measured using a Histomorphometry assay of the Ear Sebaceous Glands in the Hamster
1. Animals Male Golden Syrian, Hamster (SYR) of 110-120 g were obtained from Harlan Sprague Dawlay (Madison, USA) and housed up to 2 per cage in plastic cages in a temperature (22±3° C.) and light (12 h light/day, lights on at 7 h 15) in a controlled environment. The hamsters were fed with Certified Rodent Diet 5002 (pellet) and tap water ad libitum. The animals were acclimated for at least five days before the beginning of the study. Animals were randomly assigned to groups of eight hamsters. One group of hamsters was castrated under isoflurane-induced anesthesia on the day of dosing initiation (SD 1) and used as control group.
2. […]
The image analyzer calculated the total area of the sebaceous glands (μm^2) in each examined field. […] Thus, for each ear, two sections were cut and two fields from each section were analyzed. The total of the four readings was averaged and the mean standard of error calculated by the image analyzer. […]

SMILES	Shionogis (In Vitro) VS OH-FLU (ratio of Ki of hydroxyflutamide versus tested compound) [1]	Antiandrogenic activity in Hamster's sebaceous glands Inh. Vs Cx (%) ([2]; dose 1 μg applied topically on left ear of intact male hamster)	Antiandrogenic activity in Hamster's sebaceous glands Inh. Vs Cx (%) ([2]; dose 10 μg applied topically on left ear of intact male hamster)
CC1(C)CC2C3CCc4c(C#N)cccc4C3CC[C@]2(C)[C@H]1O (stereo partly shown) [EM-2557]	7.2 and 6.8	–	–
CC[C@@H]1CC2C3CCc4c(C#N)cccc4C3CC[C@]2(C)[C@H]1O (stereo partly shown) [EM-3852]	–	51.8% and 28.6%	85.7
C[C@@H]1CC2C3CCc4c(C#N)cccc4C3CC[C@]2(C)C1=O (stereo partly shown) [EM-3223]	16 and 14	–	–
